These are yes or no findings as the source states them, for the method shown. Binding seen in cells or lysates may run through a third protein. Some binding calls cover weakened binding; strength is not graded here.
Target: SHP-1 (human (endogenous in YTS-2DL1)) (UniProt P29350)
Test: co-IP

By UniProt entry, the sequences of proteins in these tests, tags left out.
UniProt P29350: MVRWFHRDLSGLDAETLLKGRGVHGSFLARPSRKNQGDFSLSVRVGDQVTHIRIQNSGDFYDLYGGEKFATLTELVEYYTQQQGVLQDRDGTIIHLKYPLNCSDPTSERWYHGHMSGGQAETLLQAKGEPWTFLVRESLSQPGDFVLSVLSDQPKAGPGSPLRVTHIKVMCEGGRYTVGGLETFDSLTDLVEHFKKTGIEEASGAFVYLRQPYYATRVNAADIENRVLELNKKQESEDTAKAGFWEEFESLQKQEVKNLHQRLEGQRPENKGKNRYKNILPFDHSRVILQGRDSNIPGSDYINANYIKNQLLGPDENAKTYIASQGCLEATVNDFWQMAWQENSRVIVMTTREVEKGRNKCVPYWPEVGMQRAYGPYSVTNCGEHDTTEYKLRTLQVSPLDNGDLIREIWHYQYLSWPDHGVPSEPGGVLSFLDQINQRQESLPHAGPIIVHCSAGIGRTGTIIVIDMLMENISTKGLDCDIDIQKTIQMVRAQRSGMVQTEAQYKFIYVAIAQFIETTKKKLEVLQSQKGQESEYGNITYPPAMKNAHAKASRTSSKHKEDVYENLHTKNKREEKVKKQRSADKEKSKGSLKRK
UniProt Q04759: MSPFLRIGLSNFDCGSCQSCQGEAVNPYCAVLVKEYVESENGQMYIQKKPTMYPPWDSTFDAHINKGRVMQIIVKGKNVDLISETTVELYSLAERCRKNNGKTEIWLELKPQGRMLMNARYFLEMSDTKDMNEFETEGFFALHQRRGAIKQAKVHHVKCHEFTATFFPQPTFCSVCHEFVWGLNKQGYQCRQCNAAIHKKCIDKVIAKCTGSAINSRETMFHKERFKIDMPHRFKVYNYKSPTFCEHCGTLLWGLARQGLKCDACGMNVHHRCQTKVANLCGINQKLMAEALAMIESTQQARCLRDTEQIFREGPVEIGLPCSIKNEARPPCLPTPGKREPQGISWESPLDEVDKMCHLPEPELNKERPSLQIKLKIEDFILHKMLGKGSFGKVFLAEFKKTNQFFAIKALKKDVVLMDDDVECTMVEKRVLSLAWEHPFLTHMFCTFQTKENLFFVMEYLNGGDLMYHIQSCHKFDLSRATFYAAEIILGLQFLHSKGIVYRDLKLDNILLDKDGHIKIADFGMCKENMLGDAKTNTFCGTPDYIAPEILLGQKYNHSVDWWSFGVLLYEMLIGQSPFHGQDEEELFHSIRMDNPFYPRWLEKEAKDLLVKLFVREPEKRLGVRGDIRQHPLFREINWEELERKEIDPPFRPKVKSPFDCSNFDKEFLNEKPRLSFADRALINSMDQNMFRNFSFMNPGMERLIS

## PKC-θ (from UniProt Q04759 1-706) (enzyme)
  binding: binds

— publication doi:10.1101/2021.09.06.459131
